Source: patent US8901156B2, “Compounds and methods” (Tempero Pharmaceuticals, Inc., priority 2010, dated 2014)
Some of these results come from one statement about several compounds together.

By UniProt entry, the sequences of proteins in these tests, tags left out. Residues count along the entry.
UniProt Q9UKV0, 1-1066 isoform Q9UKV0-5: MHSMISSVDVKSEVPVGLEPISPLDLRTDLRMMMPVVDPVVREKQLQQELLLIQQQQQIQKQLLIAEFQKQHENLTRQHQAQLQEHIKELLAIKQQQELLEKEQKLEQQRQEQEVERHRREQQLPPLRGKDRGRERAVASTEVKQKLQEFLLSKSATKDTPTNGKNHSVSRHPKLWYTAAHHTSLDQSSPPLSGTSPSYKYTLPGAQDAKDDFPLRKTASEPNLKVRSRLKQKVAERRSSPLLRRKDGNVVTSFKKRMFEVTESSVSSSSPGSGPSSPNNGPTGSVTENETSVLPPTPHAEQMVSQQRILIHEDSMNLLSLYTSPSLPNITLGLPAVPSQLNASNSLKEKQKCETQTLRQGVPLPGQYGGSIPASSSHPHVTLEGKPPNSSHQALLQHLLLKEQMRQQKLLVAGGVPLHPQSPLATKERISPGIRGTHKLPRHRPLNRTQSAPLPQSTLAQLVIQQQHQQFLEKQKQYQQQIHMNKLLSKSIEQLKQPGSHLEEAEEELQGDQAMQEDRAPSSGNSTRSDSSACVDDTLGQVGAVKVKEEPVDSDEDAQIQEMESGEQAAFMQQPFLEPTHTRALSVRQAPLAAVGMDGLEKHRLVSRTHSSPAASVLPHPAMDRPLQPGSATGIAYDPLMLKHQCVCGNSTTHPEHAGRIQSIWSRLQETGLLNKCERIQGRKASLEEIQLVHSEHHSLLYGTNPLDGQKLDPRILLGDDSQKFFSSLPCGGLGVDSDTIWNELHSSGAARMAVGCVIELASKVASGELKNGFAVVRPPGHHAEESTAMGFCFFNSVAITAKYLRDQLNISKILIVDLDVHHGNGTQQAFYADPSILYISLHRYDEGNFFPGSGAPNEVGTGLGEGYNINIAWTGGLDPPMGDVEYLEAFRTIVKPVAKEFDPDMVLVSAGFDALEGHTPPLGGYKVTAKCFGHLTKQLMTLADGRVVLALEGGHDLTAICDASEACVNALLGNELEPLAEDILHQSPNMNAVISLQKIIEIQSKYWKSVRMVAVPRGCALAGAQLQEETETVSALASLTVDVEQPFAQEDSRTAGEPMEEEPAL

Biological target: T1, Recombinant HDAC9 isoform 4 (Homo sapiens, UniProt Q9UKV0)
T1 construct: purchased BPS Bioscience
Assay: Histone Deacetylase 9 (HDAC9) inhibition assay, fluorogenic substrate
Assay type: biochemical
Conditions: mean of a minimum of 2 experiments; 11 point 3x dilution series from 100 uM; substrate 4.5 uM

SMILES | mean pIC50, inhibition of HDAC9
O=C(NCC(O)c1coc(-c2ccc(F)cc2)n1)c1cccc(-c2noc(C(F)(F)F)n2)c1 (stereo not shown) [Example 94, N-(2-(2-(4-Fluorophenyl)oxazol-4-yl)-2-hydroxyethyl)-3-(5-(trifluoromethyl)-1,2,4-oxadiazol-3-yl)benzamide] | greater than 4.8
O=C(NCCc1csc(-c2ccc(Cl)cc2)n1)c1cncc(-c2noc(C(F)(F)F)n2)c1 [Example 42, N-(2-(2-(4-Chlorophenyl)thiazol-4-yl)ethyl)-5-(5-(trifluoromethyl)-1,2,4-oxadiazol-3-yl)nicotinamide] | greater than 4.8
CC(CNC(=O)c1cccc(-c2noc(C(F)(F)F)n2)c1)c1nc(-c2ccc(F)cc2)cs1 (stereo not shown) [Example 118, N-(2-(4-(4-Fluorophenyl)thiazol-2-yl)propyl)-3-(5-(trifluoromethyl)-1,2,4-oxadiazol-3-yl)benzamide] | greater than 4.8
CC(C)(CNC(=O)c1cccc(-c2noc(C(F)(F)F)n2)c1)c1ncc(-c2ccccc2)s1 [Example 76, N-(2-Methyl-2-(5-phenylthiazol-2-yl)propyl)-3-(5-(trifluoromethyl)-1,2,4-oxadiazol-3-yl)benzamide] | greater than 4.8
O=C(NCC1(c2nc(-c3ccc(F)cc3)cs2)CCOCC1)c1cccc(-c2noc(C(F)(F)F)n2)c1 [Example 17, N-((4-(4-(4-Fluorophenyl)thiazol-2-yl)tetrahydro-2H-pyran-4-yl)methyl)-3-(5-(trifluoromethyl)-1,2,4-oxadiazol-3-yl)benzamide] | greater than 4.8
O=C(NCC1(c2nc(-c3ccccn3)cs2)CCOCC1)c1cccc(-c2noc(C(F)(F)F)n2)c1 [Example 20, N-((4-(4-(Pyridin-2-yl)thiazol-2-yl)tetrahydro-2H-pyran-4-yl)methyl)-3-(5-(trifluoromethyl)-1,2,4-oxadiazol-3-yl)benzamide] | greater than 4.8
CC(C)(CNC(=O)c1cncc(-c2noc(C(F)(F)F)n2)c1)c1nc(-c2ccccc2)n[nH]1 [Example 65, N-(2-Methyl-2-(3-phenyl-1H-1,2,4-triazol-5-yl)propyl)-5-(5-(trifluoromethyl)-1,2,4-oxadiazol-3-yl)nicotinamide] | greater than 4.8
CN1CCC(CNC(=O)c2cccc(-c3noc(C(F)(F)F)n3)c2)(c2csc(-c3ccc(Cl)cc3)n2)CC1 [Example 87, N-((4-(2-(4-Chlorophenyl)thiazol-4-yl)-1-methylpiperidin-4-yl)methyl)-3-(5-(trifluoromethyl)-1,2,4-oxadiazol-3-yl)benzamide] | greater than 4.8
CCc1cc(C(=O)NCC2(c3nc(-c4ccccc4)cs3)CCOCC2)cc(-c2noc(C(F)(F)F)n2)c1 [Example 33, 3-Ethyl-N-((4-(4-phenylthiazol-2-yl)tetrahydro-2H-pyran-4-yl)methyl)-5-(5-(trifluoromethyl)-1,2,4-oxadiazol-3-yl)benzamide] | greater than 4.8
CC(C)(CNC(=O)c1cccc(-c2cc(C(=O)C(F)(F)F)cs2)c1)c1coc(-c2ccc(F)cc2)n1 [Example 137, N-(2-(2-(4-Fluorophenyl)oxazol-4-yl)-2-methylpropyl)-3-(4-(2,2,2-trifluoroacetyl)thiophen-2-yl)benzamide] | greater than 4.8
